The other results are listed elsewhere or left out.
Target: T1, OsSMF1 (Oryza sativa, UniProt Q6ZLB0 1-436)
T1 sequence: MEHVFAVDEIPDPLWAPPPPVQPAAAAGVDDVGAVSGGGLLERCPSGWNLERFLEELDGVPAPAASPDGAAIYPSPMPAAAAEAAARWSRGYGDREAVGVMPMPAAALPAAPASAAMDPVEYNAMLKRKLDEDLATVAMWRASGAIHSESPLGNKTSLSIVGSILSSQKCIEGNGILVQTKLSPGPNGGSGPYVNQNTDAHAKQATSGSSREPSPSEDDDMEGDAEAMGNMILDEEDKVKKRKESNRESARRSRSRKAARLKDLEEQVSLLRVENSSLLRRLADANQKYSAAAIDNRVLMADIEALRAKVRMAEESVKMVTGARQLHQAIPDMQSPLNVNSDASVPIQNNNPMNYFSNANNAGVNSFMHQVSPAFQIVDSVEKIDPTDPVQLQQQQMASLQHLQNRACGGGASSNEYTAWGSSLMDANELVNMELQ
Assay: protein-binding microarray (RPBM); PBS, 2% BSA, 51.3 ng/ul salmon testes DNA, 50 uM zinc acetate, 200 nM TF, 25 C, 1 h; high values mean tight binding
Conditions: protein: recombinant; tags: N-terminal polyhistidine and DsRed monomer fusion (pET32a); chain copies: 2; label: CyDye5-dUTP incorporated in the synthesized complementary strand; 3' TTTTT single-stranded linker to array surface; dsDNA, one strand shown
Method in brief: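 Per-feature fluorescence intensity (arbitrary units), read on an Axon 4000B scanner, is the binding signal. Transcription factors carrying an N-terminal polyhistidine tag and DsRed fusion were expressed in E. coli BL21-CodonPlus and purified on Ni–NTA. A custom Agilent array, made double-stranded by primer extension with Cy5-dUTP and blocked with 2% BSA, was incubated with 200 nM protein in PBS, 2% BSA, salmon testes DNA and 50 µM zinc acetate at 25 °C for 1 h and then washed.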

First: CCGCGCCTTCTTCCTCCTCAGCTTTGCCGAGACCTCGTTGCGGAGTCACCTAGTGCAG
Second: CAGGGTAAATACATATACGTGTTACATATGTGAGTCATGGCGGAGTCACCTAGTGCAG
The binding signal of the first is higher: 35400 fluorescence intensity (a.u.) for the first, 6200 fluorescence intensity (a.u.) for the second.

First: GCTAGGCGGCGGTGCACGAGAAGGGAGAGGTAGTGGCGCGCGGAGTCACCTAGTGCAG
Second: GCGTGCCTGCGTGTGTATTACCGTTGTAGGGTTAGCACCGCGGAGTCACCTAGTGCAG
The binding signal of the first is higher: 25400 fluorescence intensity (a.u.) for the first, 3520 fluorescence intensity (a.u.) for the second.

First: AGTAGTACAACTATTATATTCCATCTGTCATATTTGTCATCGGAGTCACCTAGTGCAG
Second: CGTGTGCCTGCGCGCTTGCTGTCACCGTGTCAGCCTGTAGCGGAGTCACCTAGTGCAG
The binding signal of the first is lower: 3680 fluorescence intensity (a.u.) for the first, 5160 fluorescence intensity (a.u.) for the second.

First: TGCAGTACACGTCTACTGGTTTACATGTAGTTACACGTCTCGGAGTCACCTAGTGCAG
Second: GAGGGGTGGCAGTTGTCGGAGCTAGGGGAGGGAGAGGCGGCGGAGTCACCTAGTGCAG
The binding signal of the first is higher: 6060 fluorescence intensity (a.u.) for the first, 5510 fluorescence intensity (a.u.) for the second.

First: GAGCTATTTGGATTCGTTTTATCGTACTGTTGGGTGTCATCGGAGTCACCTAGTGCAG
Second: CAAGAGAAAATAGCCAAAATAATAGCAGTAAGAACACAATCGGAGTCACCTAGTGCAG
The binding signal of the first is lower: 3230 fluorescence intensity (a.u.) for the first, 15400 fluorescence intensity (a.u.) for the second.

Compared with “ACAAACCCACTATGTTACTATATGAATCATACCTTGTTCGCGGAGTCACCTAGTGCAG”, “ACTTCAGAGCGTGCTCCAGCATGACGATGGCACGGCGGTGCGGAGTCACCTAGTGCAG” is higher in binding signal: 3300 fluorescence intensity (a.u.) for the first, 3830 fluorescence intensity (a.u.) for the second.

First: TTGTACAGCAGCAGTAACCCTGACGCAAGAATTTCTTTTGCGGAGTCACCTAGTGCAG
Second: CATTGATATAAACTGACAACATGCTGCTGCTGAGAATATGCGGAGTCACCTAGTGCAG
The binding signal of the first is higher: 3810 fluorescence intensity (a.u.) for the first, 3150 fluorescence intensity (a.u.) for the second.

First: GTTGTTTGTGCTCCGTGGGTGCAGAGGAAGCAGGGCGAGCCGGAGTCACCTAGTGCAG
Second: TTGTTGAACTATAGGGTAGATGTGATATGTAAGAATTGCCCGGAGTCACCTAGTGCAG
The binding signal of the first is higher: 4650 fluorescence intensity (a.u.) for the first, 3280 fluorescence intensity (a.u.) for the second.

First: ATTCACATGTGAGGATCTTATGGCTCCACATGTCAGCTTGCGGAGTCACCTAGTGCAG
Second: GATCTGACCTCCTCAGCCTCCTTCCCCAACTGTTCCACGCCGGAGTCACCTAGTGCAG
The binding signal of the first is lower: 5140 fluorescence intensity (a.u.) for the first, 44800 fluorescence intensity (a.u.) for the second.

First: GTATTGTGTGATGTCCACTGGAGTATAGCTGGGTGGGGTACGGAGTCACCTAGTGCAG
Second: TGGTTTGCCCTGATTGGTCGCGTGACGCGTCCTCATATGCCGGAGTCACCTAGTGCAG
The binding signal of the first is lower: 3750 fluorescence intensity (a.u.) for the first, 12100 fluorescence intensity (a.u.) for the second.

First: TTGATATGCATACAGCCTTGGATGCAACGTCACCTGCAATCGGAGTCACCTAGTGCAG
Second: AGTACAATCGCGGATCAGGCGTAGAACGTGGCATGTTTCCCGGAGTCACCTAGTGCAG
The binding signal of the first is higher: 6960 fluorescence intensity (a.u.) for the first, 4270 fluorescence intensity (a.u.) for the second.

Going from “TCGCTGGCGGAGCTCCGGGAGGCGACGGGCGGGTTCGCGGCGGAGTCACCTAGTGCAG” to “GTTGAGGCCGATGAGGTGACGTGCAGAAGCTGTGGCCGTGCGGAGTCACCTAGTGCAG”, the binding signal falls from 31000 fluorescence intensity (a.u.) to 4260 fluorescence intensity (a.u.).

Going from “ATAACCCGCACCACCTCATCCGCCGCATCGATCCTCCCTCCGGAGTCACCTAGTGCAG” to “TTAACTATGGTGTATATTCTTCAACATGTCCATCAACTTACGGAGTCACCTAGTGCAG”, the binding signal falls from 3620 fluorescence intensity (a.u.) to 3300 fluorescence intensity (a.u.).

Compared with “GGGTTGCTGTATTTTCAGTTAGGCATATGGTGCTTGACATCGGAGTCACCTAGTGCAG”, “TGCGGAAGCCGAGTACAGAGGTGTGGCGAACGCGGTGGCGCGGAGTCACCTAGTGCAG” is lower in binding signal: 3520 fluorescence intensity (a.u.) for the first, 3220 fluorescence intensity (a.u.) for the second.

First: AGCACGCATTAATGACGTAGTGGTATGCTCATCCATCAAACGGAGTCACCTAGTGCAG
Second: TGGACACCGCGCCACGTGTCCAGCCACCCGTGACGTGTCGCGGAGTCACCTAGTGCAG
The binding signal of the first is lower: 3240 fluorescence intensity (a.u.) for the first, 22900 fluorescence intensity (a.u.) for the second.

First: CTGTTGTCGATATGGCGGTCTGAAGTTCTGACTCATAGTCCGGAGTCACCTAGTGCAG
Second: GCCTCTCGGATTAGCGCGGCTATAATACCGCGCGCGATTGCGGAGTCACCTAGTGCAG
The binding signal of the first is higher: 6990 fluorescence intensity (a.u.) for the first, 3650 fluorescence intensity (a.u.) for the second.

Compared with “TACTTTCGTTTGCAAATATGCGGAATGATGGGGCTGTTTCCGGAGTCACCTAGTGCAG”, “ATTTAGAGCATGACGCATTAACCCGAGTAGTCGATCCTGACGGAGTCACCTAGTGCAG” is higher in binding signal: 3700 fluorescence intensity (a.u.) for the first, 4090 fluorescence intensity (a.u.) for the second.

Going from “TATAAAATTTCGCAATAACGACGAAAGTATTAAACGGACACGGAGTCACCTAGTGCAG” to “GAGAAATGACGACACATCCTCTCGAGTGATCAGGATCCGTCGGAGTCACCTAGTGCAG”, the binding signal falls from 56200 fluorescence intensity (a.u.) to 3590 fluorescence intensity (a.u.).

Compared with “TTGGGTGCGCGTCGATTGATTCATTTGATTGGTAGGTATTCGGAGTCACCTAGTGCAG”, “CGTCGAGAAGGCGACCCAAGTCGCCAAACGCGAAACCGGTCGGAGTCACCTAGTGCAG” is higher in binding signal: 3470 fluorescence intensity (a.u.) for the first, 38500 fluorescence intensity (a.u.) for the second.

Going from “TTATATCTTGTATTTCCAAATCGTTTGCACCATGAAGATCCGGAGTCACCTAGTGCAG” to “AGTTCTTGGGGATGAGTGAGGAAGTGTGTCACATCCTGCTCGGAGTCACCTAGTGCAG”, the binding signal falls from 18200 fluorescence intensity (a.u.) to 4140 fluorescence intensity (a.u.).

Compared with “CTTGCAGAGTTATTATTAATTTACACGCATGCAGCAGGCCCGGAGTCACCTAGTGCAG”, “GCGGCGGTGGGCGTGGGCGAGGTGGAGCTTGCCGTGACGCCGGAGTCACCTAGTGCAG” is higher in binding signal: 3700 fluorescence intensity (a.u.) for the first, 3820 fluorescence intensity (a.u.) for the second.
